{"source": "patent US20260257039A1", "about": "“CONVECTION-ENHANCED THERMO-CHEMOTHERAPY CATHETER SYSTEM” (Board of Regents, The University of Texas System, priority 2022, published 2026)", "test": "Agarose infusions: CED of indigo carmine dye, constant flow vs constant pressure, with controlled catheter retraction", "details": "for Vd (volume dispersed): mean±SD, n=5"}
{"smiles": "O=C1/C(=C2\\Nc3ccc(S(=O)(=O)[O-])cc3C2=O)Nc2ccc(S(=O)(=O)[O-])cc21.[Na+].[Na+]", "note": "[indigo carmine dye, indigo carmine]", "values": [{"measurement": "Vd:Vi (mean distribution ratio)", "setting": "0.25 mm/min Const. Flow, 100 min", "value": "22.3 ± 0.35"}, {"measurement": "Vd:Vi (mean distribution ratio)", "setting": "0.25 mm/min Const. Pressure, 100 min", "value": "13.19 ± 1.21"}, {"measurement": "increase in Vd", "setting": "0.25 mm/min constant pressure relative to stationary constant flow catheter", "value": 105, "unit": "%"}, {"measurement": "increase in Vd", "setting": "0.25 mm/min constant pressure vs 0.25 mm/min constant flow rate counterpart", "value": 42, "unit": "%"}, {"measurement": "increase in Vd", "setting": "0.25 mm/min constant pressure vs stationary constant pressure", "value": 94, "unit": "%"}, {"measurement": "Vd (volume dispersed)", "setting": "0.25 mm/min retraction, Const. Flow (1 μL/min), 100 min", "value": "2.23 ± 0.04", "unit": "mL"}, {"measurement": "Vd (volume dispersed)", "setting": "0.25 mm/min retraction, Const. Pressure (target 977 Pa), 100 min", "value": "3.17 ± 0.25", "unit": "mL"}, {"measurement": "Vd:Vi (mean distribution ratio)", "setting": "0.5 mm/min Const. Flow, 100 min", "value": "27.4 ± 0.53"}, {"measurement": "Vd:Vi (mean distribution ratio)", "setting": "0.5 mm/min Const. Pressure, 100 min", "value": "13.69 ± 0.92"}, {"measurement": "increase in Vd", "setting": "0.5 mm/min constant flow rate vs 0.25 mm/min constant flow rate", "value": 23, "unit": "%"}, {"measurement": "increase in Vd", "setting": "0.5 mm/min constant pressure relative to stationary constant flow catheter", "value": 155, "unit": "%"}, {"measurement": "increase in Vd", "setting": "0.5 mm/min constant pressure vs 0.25 mm/min constant pressure", "value": "about 25%"}, {"measurement": "increase in Vd", "setting": "0.5 mm/min constant pressure vs 0.5 mm/min constant flow rate counterpart", "value": 45, "unit": "%"}, {"measurement": "increase in Vd", "setting": "0.5 mm/min constant pressure with controlled retraction, comparator not stated", "value": 143, "unit": "%"}, {"measurement": "Vd (volume dispersed)", "setting": "0.5 mm/min retraction, Const. Flow (1 μL/min), 100 min", "value": "2.74 ± 0.05", "unit": "mL"}, {"measurement": "Vd (volume dispersed)", "setting": "0.5 mm/min retraction, Const. Pressure (target 977 Pa), 100 min", "value": "3.96 ± 0.19", "unit": "mL"}, {"measurement": "Vd (volume dispersed)", "setting": "Stationary Const. Flow (1 μL/min), 100 min infusion", "value": "1.55 ± 0.03", "unit": "mL"}, {"measurement": "Vd:Vi (mean distribution ratio)", "setting": "Stationary Const. Flow, 100 min", "value": "15.5 ± 0.32"}, {"measurement": "Vd (volume dispersed)", "setting": "Stationary Const. Pressure (target 977 Pa), 100 min", "value": "1.63 ± 0.07", "unit": "mL"}, {"measurement": "Vd:Vi (mean distribution ratio)", "setting": "Stationary Const. Pressure, 100 min", "value": "14.71 ± 0.63"}]}
